Experimental data as given in paper PMC8771839.
Results are given in words; binding and its absence hold for the method and conditions named. Binding seen in cells or lysates may run through a third protein. Some binding calls cover weakened binding; strength is not graded here. Tags and fused reporters may be left off the sequences shown.

Chains of the proteins cited; added tags and fusions are not shown.
UniProt Q13200: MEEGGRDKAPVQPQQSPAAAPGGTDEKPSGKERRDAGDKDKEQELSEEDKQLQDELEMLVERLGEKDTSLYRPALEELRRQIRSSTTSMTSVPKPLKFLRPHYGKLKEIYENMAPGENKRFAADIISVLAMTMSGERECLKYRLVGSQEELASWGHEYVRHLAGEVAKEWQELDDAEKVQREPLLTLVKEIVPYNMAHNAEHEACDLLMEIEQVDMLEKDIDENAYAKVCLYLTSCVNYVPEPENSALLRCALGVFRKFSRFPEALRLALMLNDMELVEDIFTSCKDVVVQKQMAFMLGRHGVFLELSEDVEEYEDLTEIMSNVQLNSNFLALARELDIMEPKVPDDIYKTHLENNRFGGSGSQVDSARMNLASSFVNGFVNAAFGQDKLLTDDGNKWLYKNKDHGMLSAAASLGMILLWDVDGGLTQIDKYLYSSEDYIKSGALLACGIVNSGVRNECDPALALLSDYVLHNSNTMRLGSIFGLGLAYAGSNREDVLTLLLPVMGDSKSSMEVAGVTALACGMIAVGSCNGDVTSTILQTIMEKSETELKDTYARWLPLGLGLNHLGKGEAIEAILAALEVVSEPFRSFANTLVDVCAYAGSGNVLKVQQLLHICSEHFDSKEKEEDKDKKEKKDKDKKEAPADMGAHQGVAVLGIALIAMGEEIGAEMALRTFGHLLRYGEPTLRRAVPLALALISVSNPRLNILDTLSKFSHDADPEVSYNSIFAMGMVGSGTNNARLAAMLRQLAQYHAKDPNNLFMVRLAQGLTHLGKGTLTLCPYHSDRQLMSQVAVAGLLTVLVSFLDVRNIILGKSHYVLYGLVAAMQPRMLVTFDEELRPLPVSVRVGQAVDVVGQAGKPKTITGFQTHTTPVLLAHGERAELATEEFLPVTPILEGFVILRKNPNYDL

Target: T1, DIRAS family GTPase 2 (DIRAS2), FLAG-tagged (human) (UniProt Q96HU8)
T1 sequence: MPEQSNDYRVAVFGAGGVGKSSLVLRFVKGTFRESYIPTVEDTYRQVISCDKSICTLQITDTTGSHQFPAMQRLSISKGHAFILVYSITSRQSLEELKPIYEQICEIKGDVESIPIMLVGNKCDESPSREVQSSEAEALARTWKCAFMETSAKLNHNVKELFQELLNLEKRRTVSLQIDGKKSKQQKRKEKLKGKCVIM
Test: co-IP; lysates of RKO and HEK293 cells incubated overnight with primary antibodies or control immunoglobulin G, protein A/G-magnetic beads, western blotting

26S proteasome non-ATPase regulatory subunit 2 (PSMD2) (from UniProt Q13200 1-908)
binding: binds
